Paper PMC4925830
No constants are given. Whether binding was seen depends on the method and setting. Binding seen in cells or lysates may run through a third protein. Some results given as binding are weak or reduced against the parent protein; the word gives no strength. Where a sequence is shown, tags or fusion partners need not be part of it.

Key:
[1] = molecular target: T1, Fkh1-TAP (S. cerevisiae) (UniProt P40466); experiment: co-IP; Fkh1-TAP precipitated from yeast lysates (RIPA buffer lacking SDS) on IgG Sepharose 6 Fast Flow beads, 4°C, 90 minutes; Westerns with antibodies against TAP and GST; asynchronous log phase cells, and cells released synchronously from HU S phase arrest with samples every 30 minutes
T1 sequence: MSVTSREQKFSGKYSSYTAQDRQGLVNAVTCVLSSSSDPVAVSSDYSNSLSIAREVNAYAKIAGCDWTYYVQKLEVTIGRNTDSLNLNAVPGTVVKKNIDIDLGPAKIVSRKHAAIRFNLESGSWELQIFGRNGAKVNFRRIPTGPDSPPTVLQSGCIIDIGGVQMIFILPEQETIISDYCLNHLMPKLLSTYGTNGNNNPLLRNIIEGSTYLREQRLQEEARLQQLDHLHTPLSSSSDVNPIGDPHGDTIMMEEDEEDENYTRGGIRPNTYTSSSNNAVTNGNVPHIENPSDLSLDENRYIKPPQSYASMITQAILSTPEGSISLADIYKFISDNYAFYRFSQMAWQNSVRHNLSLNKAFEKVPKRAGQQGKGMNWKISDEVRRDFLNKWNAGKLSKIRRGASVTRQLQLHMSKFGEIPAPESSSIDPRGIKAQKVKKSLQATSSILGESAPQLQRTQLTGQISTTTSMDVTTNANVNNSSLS

[2] = molecular target: T2, Fkh1^K-R (Fkh1 K373R-TAP) (S. cerevisiae) (UniProt P40466); experiment: as above
T2 sequence: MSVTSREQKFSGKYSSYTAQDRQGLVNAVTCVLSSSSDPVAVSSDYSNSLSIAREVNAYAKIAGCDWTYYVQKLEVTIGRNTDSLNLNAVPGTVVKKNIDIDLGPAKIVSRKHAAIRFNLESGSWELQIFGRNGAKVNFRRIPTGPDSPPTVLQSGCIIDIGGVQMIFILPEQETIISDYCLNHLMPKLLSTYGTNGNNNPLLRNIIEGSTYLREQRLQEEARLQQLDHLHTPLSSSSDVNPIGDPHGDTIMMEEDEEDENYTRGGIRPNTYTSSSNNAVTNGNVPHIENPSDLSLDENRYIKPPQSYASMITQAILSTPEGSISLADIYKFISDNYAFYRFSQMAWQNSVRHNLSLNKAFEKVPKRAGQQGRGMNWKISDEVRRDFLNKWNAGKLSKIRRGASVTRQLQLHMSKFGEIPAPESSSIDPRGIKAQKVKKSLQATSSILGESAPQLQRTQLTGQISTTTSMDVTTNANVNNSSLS

B1: GST-Apc5 (protein, UniProt Q08683 1-685)
chain: MSKYGPLGITNFITPYDLCILILIHAHCSQDNGISVPTAVFLRLISPTRPSLEWNPLLKDNSNLRSSSIVPPPVLPILDNIIRILLDDKDGNKIALTLMGYLEAINGLDSINRLMMDLEKNCLVNNYRSMKMRTTSTRRQMTRASFLGTFLSTCIRKYQIGDFEMRETIWINLQNFKTVFKHTPLWLRFKDNVHIQKVKNCLLANDEISVEDQQMVEFFQHFNNGNDADSKTMNEENYGTLISIQHLQSIVNRQIVNWLDNTEFNLMGQEETSSTYEEQSGLVFDLLDTLSLNDATKFPLIFILKYLEAIKENSYQTALDSLHNYFDYKSTGNSQNYFHISLLSLATFHSSFNECDAAINSFEEATRIARENKDMETLNLIMIWIINFIEVHPEYANRFYITVEQIIKYLKNSSDVEDANIFSNAYKFETLLSMVKESKTAEVSSSLLKFMAITLQNVPSQNFDLFQSLVSYEVKFWKELGYESISDVYEKFLSKTSSSSLRNYDSSIINQDIKVAFKALEEDDFLKVKQYLLKSESLELDYDQKINLKYLRVKYLVKIGDYDLSMRLINQYVKECCEEVADSNWRFKFEIESINVLLLSDVGIRSLPKIIKLIDEYKEIGNPLRCVILLLKLCEVLIQVGKSMEAECLISCNLSTILEFPFVRKKTDELLESLSVEEDRDVQMT
[1]
  binding: binds
[2]
  binding: binds
